Test results taken from patent US20090143418A1, “Compositions and Methods for Preventing and Treating Hair Growth Cycle-Related Conditions” (THE REGENTS OF THE UNIVERSITY OF MICHIGAN, priority 2007, published 2009).
For at least one compound, name, drawing or mass did not settle the structure.

Key:
mice [1] = assay: Gray hair after sublethal irradiation (650 rads) without bone marrow transplantation; assay type: in vivo, mouse; conditions: no transplantation, 4 mg/kg i.p., 4-16 weeks post-irradiation
mice [2] = assay: Hair regrowth after depilation following lethal irradiation and transplantation; assay type: in vivo, mouse; conditions: 2x560 rads, transplant; 4 mg/kg i.p.; depilated at 4, 8, 12 weeks, pictures 4 weeks after

## CO[C@H]1C[C@@H]2CC[C@@H](C)[C@@](O)(O2)C(=O)C(=O)N2CCCC[C@H]2C(=O)O[C@H]([C@H](C)C[C@@H]2CC[C@@H](O)[C@H](OC)C2)CC(=O)[C@H](C)/C=C(\C)[C@@H](O)[C@@H](OC)C(=O)[C@H](C)C[C@H](C)/C=C/C=C/C=C/1C [Rapamycin]
Mice [1]
  gray hair after sublethal irradiation: decreased gray hair
Mice [2]
  number of gray hairs after irradiation: reduces the number of gray hairs after irradiation
